Source: the supplement of paper PMC10849652
The list shows a part of the results.

Amino acid sequences for entries named in this document (tags omitted). A change or cut given only in a name is not applied to a line headed by its entry.
UniProt Q9NVS9: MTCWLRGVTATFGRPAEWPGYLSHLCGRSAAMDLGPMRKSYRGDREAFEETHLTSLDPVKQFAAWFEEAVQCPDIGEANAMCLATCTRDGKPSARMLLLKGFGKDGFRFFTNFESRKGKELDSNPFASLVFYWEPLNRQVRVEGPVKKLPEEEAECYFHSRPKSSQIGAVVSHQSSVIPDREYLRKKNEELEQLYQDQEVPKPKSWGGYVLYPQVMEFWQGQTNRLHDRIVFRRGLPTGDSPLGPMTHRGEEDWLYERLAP
UniProt P56282: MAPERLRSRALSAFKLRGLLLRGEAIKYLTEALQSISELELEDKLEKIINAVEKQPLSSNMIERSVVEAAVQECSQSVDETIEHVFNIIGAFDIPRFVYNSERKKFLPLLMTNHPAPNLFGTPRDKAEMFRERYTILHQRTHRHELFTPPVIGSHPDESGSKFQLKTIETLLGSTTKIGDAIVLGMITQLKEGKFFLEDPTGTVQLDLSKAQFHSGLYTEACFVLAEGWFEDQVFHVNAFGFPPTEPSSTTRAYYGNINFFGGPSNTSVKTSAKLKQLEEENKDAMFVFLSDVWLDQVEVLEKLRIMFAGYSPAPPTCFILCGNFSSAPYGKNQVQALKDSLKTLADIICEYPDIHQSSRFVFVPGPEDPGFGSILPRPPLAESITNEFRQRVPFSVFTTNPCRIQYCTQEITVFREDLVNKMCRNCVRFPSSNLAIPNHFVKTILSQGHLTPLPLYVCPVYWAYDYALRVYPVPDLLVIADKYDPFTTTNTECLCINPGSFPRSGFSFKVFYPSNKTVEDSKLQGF
UniProt O75439: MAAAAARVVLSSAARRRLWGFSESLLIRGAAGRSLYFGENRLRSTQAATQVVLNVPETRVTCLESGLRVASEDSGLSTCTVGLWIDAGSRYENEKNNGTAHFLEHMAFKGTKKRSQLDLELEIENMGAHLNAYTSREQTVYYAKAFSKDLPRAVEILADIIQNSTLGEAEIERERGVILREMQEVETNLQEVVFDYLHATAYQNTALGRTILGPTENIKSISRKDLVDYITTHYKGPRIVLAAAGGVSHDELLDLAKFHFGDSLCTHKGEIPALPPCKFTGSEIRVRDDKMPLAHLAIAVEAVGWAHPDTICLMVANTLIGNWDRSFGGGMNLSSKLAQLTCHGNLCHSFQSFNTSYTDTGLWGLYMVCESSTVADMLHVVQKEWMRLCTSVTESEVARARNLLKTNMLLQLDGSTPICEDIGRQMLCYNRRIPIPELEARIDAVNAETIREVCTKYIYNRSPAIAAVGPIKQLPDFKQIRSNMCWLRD
UniProt O43660: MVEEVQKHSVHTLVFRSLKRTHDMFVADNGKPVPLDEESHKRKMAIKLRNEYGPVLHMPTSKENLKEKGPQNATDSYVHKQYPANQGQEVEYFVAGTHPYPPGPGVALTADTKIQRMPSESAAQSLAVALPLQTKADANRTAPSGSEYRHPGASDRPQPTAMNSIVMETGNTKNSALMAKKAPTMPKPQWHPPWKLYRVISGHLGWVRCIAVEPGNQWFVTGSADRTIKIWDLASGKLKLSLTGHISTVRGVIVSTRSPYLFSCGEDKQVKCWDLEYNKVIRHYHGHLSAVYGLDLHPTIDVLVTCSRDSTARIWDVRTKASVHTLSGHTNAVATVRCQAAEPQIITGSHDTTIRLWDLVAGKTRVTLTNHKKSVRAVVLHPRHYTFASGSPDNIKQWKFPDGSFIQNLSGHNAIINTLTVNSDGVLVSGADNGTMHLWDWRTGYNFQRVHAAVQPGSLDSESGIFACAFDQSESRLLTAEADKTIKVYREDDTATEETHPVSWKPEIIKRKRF
UniProt Q9BY77: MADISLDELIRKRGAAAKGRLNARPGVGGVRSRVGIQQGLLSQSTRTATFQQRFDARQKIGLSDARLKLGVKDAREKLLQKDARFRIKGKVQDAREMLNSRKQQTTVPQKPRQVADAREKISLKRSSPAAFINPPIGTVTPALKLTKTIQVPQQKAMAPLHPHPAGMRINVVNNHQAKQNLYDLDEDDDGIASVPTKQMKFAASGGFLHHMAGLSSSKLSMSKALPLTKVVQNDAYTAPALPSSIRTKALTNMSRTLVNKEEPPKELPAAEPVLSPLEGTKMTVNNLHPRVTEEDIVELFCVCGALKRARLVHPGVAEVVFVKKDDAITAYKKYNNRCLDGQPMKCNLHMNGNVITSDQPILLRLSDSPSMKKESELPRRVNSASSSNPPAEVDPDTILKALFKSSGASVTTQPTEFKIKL
UniProt P16435: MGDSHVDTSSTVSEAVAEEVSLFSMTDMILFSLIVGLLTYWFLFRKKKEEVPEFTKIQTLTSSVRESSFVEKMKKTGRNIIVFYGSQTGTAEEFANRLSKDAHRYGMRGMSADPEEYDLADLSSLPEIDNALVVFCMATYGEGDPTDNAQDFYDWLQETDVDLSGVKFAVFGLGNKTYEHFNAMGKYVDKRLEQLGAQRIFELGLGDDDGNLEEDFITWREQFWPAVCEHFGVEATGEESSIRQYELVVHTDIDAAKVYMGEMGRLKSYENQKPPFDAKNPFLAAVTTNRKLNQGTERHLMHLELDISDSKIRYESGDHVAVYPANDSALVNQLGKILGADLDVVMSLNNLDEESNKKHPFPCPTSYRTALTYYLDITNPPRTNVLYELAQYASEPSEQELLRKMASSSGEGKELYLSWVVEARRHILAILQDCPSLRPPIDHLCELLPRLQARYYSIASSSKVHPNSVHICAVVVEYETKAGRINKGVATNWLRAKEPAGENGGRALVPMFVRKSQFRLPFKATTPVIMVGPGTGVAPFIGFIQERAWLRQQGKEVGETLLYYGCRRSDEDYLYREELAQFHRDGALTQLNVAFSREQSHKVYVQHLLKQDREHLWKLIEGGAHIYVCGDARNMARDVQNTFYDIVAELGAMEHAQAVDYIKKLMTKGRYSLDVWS
UniProt Q9NW08: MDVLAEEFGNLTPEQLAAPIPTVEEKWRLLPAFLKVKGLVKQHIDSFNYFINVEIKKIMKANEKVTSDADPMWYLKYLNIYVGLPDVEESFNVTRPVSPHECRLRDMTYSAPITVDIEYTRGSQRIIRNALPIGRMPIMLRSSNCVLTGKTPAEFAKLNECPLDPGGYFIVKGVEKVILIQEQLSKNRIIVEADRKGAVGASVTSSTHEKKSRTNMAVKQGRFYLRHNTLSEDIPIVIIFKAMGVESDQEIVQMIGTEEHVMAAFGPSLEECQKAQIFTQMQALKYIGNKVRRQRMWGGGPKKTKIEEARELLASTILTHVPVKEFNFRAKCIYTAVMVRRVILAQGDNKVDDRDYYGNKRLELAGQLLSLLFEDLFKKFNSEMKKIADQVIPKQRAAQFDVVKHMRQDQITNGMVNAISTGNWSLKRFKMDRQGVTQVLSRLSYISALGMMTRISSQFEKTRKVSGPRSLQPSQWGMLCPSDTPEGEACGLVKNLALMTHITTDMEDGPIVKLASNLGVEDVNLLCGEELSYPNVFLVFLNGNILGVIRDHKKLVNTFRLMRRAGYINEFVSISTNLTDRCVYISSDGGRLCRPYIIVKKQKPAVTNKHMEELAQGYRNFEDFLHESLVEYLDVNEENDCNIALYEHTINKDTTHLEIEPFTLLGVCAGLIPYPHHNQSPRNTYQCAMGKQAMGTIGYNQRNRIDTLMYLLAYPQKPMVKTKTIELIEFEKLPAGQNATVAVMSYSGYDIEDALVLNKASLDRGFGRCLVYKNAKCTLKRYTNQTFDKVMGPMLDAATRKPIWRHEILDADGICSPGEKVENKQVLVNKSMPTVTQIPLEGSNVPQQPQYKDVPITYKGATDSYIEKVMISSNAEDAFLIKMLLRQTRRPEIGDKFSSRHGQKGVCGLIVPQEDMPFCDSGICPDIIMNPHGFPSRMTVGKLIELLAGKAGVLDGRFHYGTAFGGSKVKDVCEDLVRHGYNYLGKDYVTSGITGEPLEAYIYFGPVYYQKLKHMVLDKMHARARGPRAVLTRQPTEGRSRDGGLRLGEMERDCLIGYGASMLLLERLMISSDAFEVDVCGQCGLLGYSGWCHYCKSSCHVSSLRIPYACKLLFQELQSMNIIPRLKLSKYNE
UniProt Q14181: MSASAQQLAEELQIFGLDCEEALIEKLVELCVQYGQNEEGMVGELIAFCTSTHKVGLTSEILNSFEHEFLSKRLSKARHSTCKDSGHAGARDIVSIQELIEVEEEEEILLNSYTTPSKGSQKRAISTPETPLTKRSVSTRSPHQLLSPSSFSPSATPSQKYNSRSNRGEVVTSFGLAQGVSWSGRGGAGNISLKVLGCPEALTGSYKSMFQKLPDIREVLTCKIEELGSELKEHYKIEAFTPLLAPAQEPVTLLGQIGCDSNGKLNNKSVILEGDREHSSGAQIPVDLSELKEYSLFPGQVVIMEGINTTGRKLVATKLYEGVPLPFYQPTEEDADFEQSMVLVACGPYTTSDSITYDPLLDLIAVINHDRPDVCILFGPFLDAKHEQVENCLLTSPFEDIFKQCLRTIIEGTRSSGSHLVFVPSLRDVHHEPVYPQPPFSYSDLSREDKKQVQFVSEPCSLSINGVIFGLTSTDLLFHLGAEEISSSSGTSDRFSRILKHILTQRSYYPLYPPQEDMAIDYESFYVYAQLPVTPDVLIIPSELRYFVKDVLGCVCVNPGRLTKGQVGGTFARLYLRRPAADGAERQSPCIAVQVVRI
UniProt P28340: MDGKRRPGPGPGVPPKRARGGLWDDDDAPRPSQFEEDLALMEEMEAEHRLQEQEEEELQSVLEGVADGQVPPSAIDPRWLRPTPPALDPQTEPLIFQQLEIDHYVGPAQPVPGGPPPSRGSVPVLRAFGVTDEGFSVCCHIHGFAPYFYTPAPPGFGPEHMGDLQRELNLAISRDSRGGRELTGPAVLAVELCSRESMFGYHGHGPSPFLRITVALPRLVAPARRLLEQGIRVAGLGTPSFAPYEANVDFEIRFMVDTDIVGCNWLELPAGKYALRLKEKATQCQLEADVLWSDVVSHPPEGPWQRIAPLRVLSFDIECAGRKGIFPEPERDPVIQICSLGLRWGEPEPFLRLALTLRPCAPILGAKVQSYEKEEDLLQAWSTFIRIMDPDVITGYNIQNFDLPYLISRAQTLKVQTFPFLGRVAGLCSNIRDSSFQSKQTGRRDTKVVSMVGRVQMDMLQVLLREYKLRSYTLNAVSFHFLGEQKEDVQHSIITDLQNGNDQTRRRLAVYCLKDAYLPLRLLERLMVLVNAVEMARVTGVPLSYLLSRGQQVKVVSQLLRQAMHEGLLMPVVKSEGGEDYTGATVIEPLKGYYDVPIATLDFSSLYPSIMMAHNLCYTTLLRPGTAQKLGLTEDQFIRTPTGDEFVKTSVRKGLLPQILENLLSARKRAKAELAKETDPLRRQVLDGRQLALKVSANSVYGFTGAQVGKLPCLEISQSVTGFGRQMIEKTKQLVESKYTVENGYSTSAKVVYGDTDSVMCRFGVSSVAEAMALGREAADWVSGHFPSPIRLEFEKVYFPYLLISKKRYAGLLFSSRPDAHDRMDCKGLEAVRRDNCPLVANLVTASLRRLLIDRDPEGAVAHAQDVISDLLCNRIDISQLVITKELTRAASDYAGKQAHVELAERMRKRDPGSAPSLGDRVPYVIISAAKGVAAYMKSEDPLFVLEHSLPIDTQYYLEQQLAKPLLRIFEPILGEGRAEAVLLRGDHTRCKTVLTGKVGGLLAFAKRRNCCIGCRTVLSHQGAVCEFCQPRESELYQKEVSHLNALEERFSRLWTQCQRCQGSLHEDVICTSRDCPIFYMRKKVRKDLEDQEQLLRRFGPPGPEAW
UniProt Q9NRY6: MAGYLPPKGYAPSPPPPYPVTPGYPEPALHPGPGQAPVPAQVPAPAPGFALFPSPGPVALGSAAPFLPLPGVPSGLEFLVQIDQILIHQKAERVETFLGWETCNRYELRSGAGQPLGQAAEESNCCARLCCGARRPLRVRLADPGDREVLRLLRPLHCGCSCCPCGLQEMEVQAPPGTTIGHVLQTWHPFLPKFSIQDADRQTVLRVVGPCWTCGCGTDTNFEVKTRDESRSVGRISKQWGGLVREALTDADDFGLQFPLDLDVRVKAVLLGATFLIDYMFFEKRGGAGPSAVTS
UniProt Q15181: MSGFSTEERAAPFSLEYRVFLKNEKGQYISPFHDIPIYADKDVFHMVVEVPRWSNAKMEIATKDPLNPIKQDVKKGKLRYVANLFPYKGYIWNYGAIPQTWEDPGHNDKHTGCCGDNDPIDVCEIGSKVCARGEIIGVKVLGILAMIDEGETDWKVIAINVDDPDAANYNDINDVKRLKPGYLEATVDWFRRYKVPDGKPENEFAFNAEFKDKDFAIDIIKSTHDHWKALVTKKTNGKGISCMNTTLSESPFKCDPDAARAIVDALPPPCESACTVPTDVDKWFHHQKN

Assays:
Assay in all cases: log2 fold change, soluble protein after heating vs DMSO (PISA); higher = thermal stabilisation; K562 lysate, 10 uM; active = over 0.2 and 3.5 SD of the protein, either way, in both replicates (recomputed)
[1] = compound: CCCS(=O)(=O)Nc1ccc(F)c(C(=O)c2c[nH]c3ncc(-c4ccc(Cl)cc4)cc23)c1F [vemurafenib]
Procedure, shortened: (§1)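 Following dounce homogenisation of K562 pellets in PBS pH 7.4 with 1 mM MgCl2, crude extract at 1 mg/mL protein was incubated for 30 min with 10 μM compound. Aliquots were then heated for 3 min over 48°C-58°C and pooled, NP-40 was added to 0.5% at 4°C, and soluble protein was recovered as the supernatant at 21,000xg for 90 min. Channel-sum-equalised TMTpro 16plex LC-MS/MS quantified this protein. Each value, from duplicates, is a log-two fold change in thermal stability relative to solvent controls.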

[2] = compound: CCCS(=O)(=O)Nc1ccc(F)c(C(=O)c2c[nH]c3ncc(Cl)cc23)c1F
Procedure, shortened: as §1

[3] = compound: CCN(CCCOc1ccc2c(Nc3cc(CC(=O)Nc4cccc(F)c4)[nH]n3)ncnc2c1)CCOP(=O)(O)O [barasertib]
Procedure, shortened: as §1

[4] = compound: CC[C@@H]1C(=O)N(C)c2cnc(Nc3ccc(C(=O)NC4CCN(C)CC4)cc3OC)nc2N1C1CCCC1
Procedure, shortened: as §1

[5] = compound: CC[C@@H]1C(=O)N(C)c2cnc(Nc3ccc(C(=O)N[C@H]4CC[C@H](N5CCN(CC6CC6)CC5)CC4)cc3OC)nc2N1C(C)C [volasertib]
Procedure, shortened: as §1

[6] = compound: CCn1c(C(=O)N(C2CC2)C2CC2)cc2c3c(ncn3C)c(Nc3cc(C)n(C)n3)nc21
Procedure, shortened: as §1

[7] = compound: CCn1cc(-c2ccnc3[nH]c(-c4cccc(CN(C)C)c4)cc23)c(-c2ccc(NC(=O)N(C)C)cc2)n1
Procedure, shortened: as §1

[8] = compound: CN1CCC(CNc2ccc3ncc(-c4cccc(OC(F)(F)F)c4)n3n2)CC1
Procedure, shortened: as §1

[9] = compound: CN1CCN(CCOc2cc(OC3CCOCC3)c3c(Nc4c(Cl)ccc5c4OCO5)ncnc3c2)CC1 [saracatinib]
Procedure, shortened: as §1

[10] = compound: CN1CCN(c2nc(C3=C(c4c[nH]c5ccccc45)C(=O)NC3=O)c3ccccc3n2)CC1 [sotrastaurin]
Procedure, shortened: as §1

Measured: log2 fold change

POFUT1 (UniProt Q9H488)
inactive: [1] -0.037 | [2] 0 | [3] -0.063 | [4] 0.008 | [5] -0.012 | [6] -0.024 | [7] -0.013 | [8] 0.022 | [9] -0.025 | [10] 0.024

PNPO (UniProt Q9NVS9)
inactive: [1] -0.269 | [2] 0.021 | [3] -0.022 | [4] -0.216 | [5] -0.066 | [6] 0.008 | [7] 0.103 | [8] -0.047 | [9] -0.007 | [10] 0.019

POLB (UniProt P06746)
inactive: [1] -0.013 | [2] 0.003 | [3] -0.029 | [4] -0.013 | [5] -0.025 | [6] 0.032 | [7] -0.015 | [8] -0.07 | [9] 0.033 | [10] 0.048

POLE2 (UniProt P56282)
inactive: [1] 0.039 | [2] 0.021 | [3] 0.034 | [4] -0.033 | [5] -0.104 | [6] 0.043 | [7] -0.164 | [8] 0.085 | [9] 0.012 | [10] 0.094

PLXNA1 (UniProt Q9UIW2)
inactive: [1] 0.025 | [2] -0.003 | [3] 0.029 | [4] -0.013 | [5] -0.007 | [6] -0.012 | [7] -0.026 | [8] 0.019 | [9] -0.01 | [10] 0.02

PMPCB (UniProt O75439)
inactive: [1] -0.026 | [2] -0.038 | [3] 0.012 | [4] -0.034 | [5] 0.005 | [6] 0.016 | [7] -0.001 | [8] 0.07 | [9] -0.021 | [10] -0.008

PLRG1 (UniProt O43660)
inactive: [1] 0.01 | [2] -0.003 | [3] 0.018 | [4] -0.011 | [5] -0.032 | [6] -0.016 | [7] -0.052 | [8] 0.024 | [9] 0.009 | [10] 0.024

POLDIP3 (UniProt Q9BY77)
inactive: [1] -0.024 | [2] 0.008 | [3] 0.035 | [5] -0.011 | [6] -0.026 | [7] -0.125 | [8] 0.108 | [9] 0.011 | [10] -0.025

PLXNA3 (UniProt P51805)
inactive: [1] -0.046 | [2] 0.103 | [3] 0.296 | [4] -0.061 | [5] -0.117 | [6] 0.01 | [7] 0.083 | [8] 0.16 | [10] -0.06

POR (UniProt P16435)
inactive: [1] -0.001 | [2] 0.013 | [3] 0.023 | [4] 0.025 | [5] 0.008 | [6] -0.017 | [7] -0.025 | [8] 0.002 | [9] 0.016 | [10] 0.007

POLR3B (UniProt Q9NW08)
inactive: [1] -0.006 | [2] 0.002 | [3] 0.02 | [4] 0 | [5] -0.01 | [6] 0.02 | [7] 0.022 | [8] -0.02 | [9] 0.021 | [10] 0.032

POLA2 (UniProt Q14181)
inactive: [1] -0.008 | [2] -0.026 | [3] -0.003 | [4] 0.027 | [5] 0.009 | [6] 0.012 | [7] 0.087 | [8] -0.036 | [9] 0.009 | [10] 0.009

3 successive records out of the list so far, quoted:
POLB (UniProt P06746)
inactive: [1] -0.013 | [2] 0.003 | [3] -0.029 | [4] -0.013 | [5] -0.025 | [6] 0.032 | [7] -0.015 | [8] -0.07 | [9] 0.033 | [10] 0.048

POLE2 (UniProt P56282)
inactive: [1] 0.039 | [2] 0.021 | [3] 0.034 | [4] -0.033 | [5] -0.104 | [6] 0.043 | [7] -0.164 | [8] 0.085 | [9] 0.012 | [10] 0.094

PLXNA1 (UniProt Q9UIW2)
inactive: [1] 0.025 | [2] -0.003 | [3] 0.029 | [4] -0.013 | [5] -0.007 | [6] -0.012 | [7] -0.026 | [8] 0.019 | [9] -0.01 | [10] 0.02

The list continues.

POLD1 (UniProt P28340)
inactive: [1] 0.01 | [2] 0.053 | [3] -0.011 | [4] -0.021 | [5] -0.005 | [6] 0.035 | [7] 0.028 | [8] -0.043 | [9] 0.01 | [10] 0.015

PLSCR3 (UniProt Q9NRY6)
inactive: [1] 0 | [2] -0.058 | [4] 0.052 | [5] -0.012 | [7] 0.053 | [8] -0.003 | [9] -0.046 | [10] -0.004

PPA1 (UniProt Q15181)
inactive: [1] 0.01 | [2] -0.017 | [3] -0.018 | [4] 0.074 | [5] -0.004 | [6] -0.039 | [7] 0.21 | [8] -0.036 | [9] 0.006 | [10] -0.016
